Where two headings read alike, the source gives them in different places. Results are given in words; binding and its absence hold for the method and conditions named. Binding seen in cells or lysates may run through a third protein. Some results given as binding are weak or reduced against the parent protein; the word gives no strength.
Experiments:
Assay in all cases: co-IP
[1] = molecular target: Neurogenic differentiation 1 (NEUROD1) (mouse (endogenous in hippocampus and primary hippocampal neurons)) (UniProt Q60867)
[2] = molecular target: HDAC2 (mouse (endogenous in hippocampal tissue)) (UniProt P70288)
[3] = molecular target: Neurogenic differentiation 1 (NEUROD1) (mouse (endogenous in hippocampus and primary hippocampal neurons)) (UniProt Q60867); remark: listed apart in the source

Amino acid sequences for entries named in this document (tags omitted).
UniProt Q60867: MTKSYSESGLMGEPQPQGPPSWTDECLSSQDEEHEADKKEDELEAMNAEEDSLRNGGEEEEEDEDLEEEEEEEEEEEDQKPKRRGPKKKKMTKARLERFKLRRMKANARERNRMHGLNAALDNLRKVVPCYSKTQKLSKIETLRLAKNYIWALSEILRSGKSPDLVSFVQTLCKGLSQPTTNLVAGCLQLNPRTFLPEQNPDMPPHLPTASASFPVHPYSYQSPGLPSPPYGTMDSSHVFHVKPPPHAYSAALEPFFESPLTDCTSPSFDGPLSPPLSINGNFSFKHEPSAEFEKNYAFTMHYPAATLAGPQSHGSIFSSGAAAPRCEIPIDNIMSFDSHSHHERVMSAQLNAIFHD
UniProt P70288: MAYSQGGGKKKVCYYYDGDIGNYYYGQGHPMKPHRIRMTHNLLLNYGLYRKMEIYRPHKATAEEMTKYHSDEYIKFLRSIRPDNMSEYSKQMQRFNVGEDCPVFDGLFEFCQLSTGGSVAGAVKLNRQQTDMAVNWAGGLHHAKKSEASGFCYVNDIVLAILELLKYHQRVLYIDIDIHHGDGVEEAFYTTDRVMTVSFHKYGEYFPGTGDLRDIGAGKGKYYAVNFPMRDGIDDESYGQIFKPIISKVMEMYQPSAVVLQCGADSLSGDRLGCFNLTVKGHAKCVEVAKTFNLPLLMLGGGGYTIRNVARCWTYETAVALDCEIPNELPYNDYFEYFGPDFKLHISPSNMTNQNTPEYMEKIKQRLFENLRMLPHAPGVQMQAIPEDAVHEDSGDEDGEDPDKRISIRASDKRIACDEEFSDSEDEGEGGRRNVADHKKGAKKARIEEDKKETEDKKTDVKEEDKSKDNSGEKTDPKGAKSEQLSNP
UniProt Q60987: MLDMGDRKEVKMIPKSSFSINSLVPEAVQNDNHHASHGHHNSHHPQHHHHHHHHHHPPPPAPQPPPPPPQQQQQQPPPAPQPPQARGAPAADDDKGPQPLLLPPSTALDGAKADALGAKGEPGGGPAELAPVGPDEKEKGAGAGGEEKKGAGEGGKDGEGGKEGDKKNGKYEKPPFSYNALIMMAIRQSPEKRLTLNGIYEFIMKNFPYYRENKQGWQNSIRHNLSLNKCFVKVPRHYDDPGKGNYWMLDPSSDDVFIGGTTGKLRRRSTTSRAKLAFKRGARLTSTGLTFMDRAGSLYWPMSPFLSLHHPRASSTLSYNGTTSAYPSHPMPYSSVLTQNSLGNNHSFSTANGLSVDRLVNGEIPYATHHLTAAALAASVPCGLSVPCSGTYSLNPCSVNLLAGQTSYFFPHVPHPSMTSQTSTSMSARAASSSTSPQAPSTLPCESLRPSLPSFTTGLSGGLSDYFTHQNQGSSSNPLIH

- binding [1]: binds
- binding [2]: binds
- binding [3]: binds
Substance: Forkhead box G1 (FOXG1) (from UniProt Q60987 1-481)
